The list shows a part of the results.
Target: OsWRKY34 (Oryza sativa, UniProt Q0JBA9 1-250)
Test: protein-binding microarray (RPBM); PBS, 2% BSA, 51.3 ng/ul salmon testes DNA, 50 uM zinc acetate, 200 nM TF, 25 C, 1 h; high values mean tight binding
Details: protein: recombinant; tags: N-terminal polyhistidine and DsRed monomer fusion (pET32a); label: CyDye5-dUTP incorporated in the synthesized complementary strand; 3' TTTTT single-stranded linker to array surface; dsDNA, one strand shown
Procedure, shortened: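 A custom Agilent array was converted to double-stranded form by primer extension with Cy5-dUTP and blocked with 2% BSA. Protein at 200 nM in PBS with 2% BSA, salmon testes DNA and 50 µM zinc acetate was applied for 1 h at 25 °C, followed by washing. The proteins were polyhistidine–DsRed N-terminal fusions of transcription factors, expressed in E. coli BL21-CodonPlus and Ni–NTA-purified. The binding signal is per-feature fluorescence intensity (arbitrary units) from an Axon 4000B scanner.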

Chains of the proteins cited; added tags and fusions are not shown.
UniProt Q0JBA9, entry or part of it: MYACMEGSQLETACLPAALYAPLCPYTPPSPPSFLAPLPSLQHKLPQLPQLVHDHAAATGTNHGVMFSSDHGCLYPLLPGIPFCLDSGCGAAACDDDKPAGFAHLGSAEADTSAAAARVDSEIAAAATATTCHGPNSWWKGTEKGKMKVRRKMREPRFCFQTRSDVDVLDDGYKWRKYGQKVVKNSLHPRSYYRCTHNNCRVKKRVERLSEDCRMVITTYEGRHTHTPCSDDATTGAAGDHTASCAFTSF

Row | Sequence | binding signal
1 | TTAGATGTGGCCAGTTTTGATTTCTAGCTTATAGGATCGTCGGAGTCACCTAGTGCAG | 9000 fluorescence intensity (a.u.)
2 | GGGGTGATTAGGCTTCTACTGCAATTCAGTACAAGTAAATCGGAGTCACCTAGTGCAG | 8310 fluorescence intensity (a.u.)
3 | AAATGTTGCAGTGATTTTTTTTGGTATTCTTTTTGCCGAACGGAGTCACCTAGTGCAG | 8260 fluorescence intensity (a.u.)
4 | CTCCCTTGATATCTAGCTCATGATTGAATCGTCTTCCTCACGGAGTCACCTAGTGCAG | 9370 fluorescence intensity (a.u.)
5 | ACATTTTATCTTTTGACCTCGTCCCCATTAGAGCCGGCGTCGGAGTCACCTAGTGCAG | 8160 fluorescence intensity (a.u.)
6 | ATGGTATATTTCTGCACAGGTTTTTTCATCCCGAATATTTCGGAGTCACCTAGTGCAG | 13600 fluorescence intensity (a.u.)
7 | TTGTTTCTATAAGTTTAGGGTACACATTTCTGGTTTTTGTCGGAGTCACCTAGTGCAG | 9140 fluorescence intensity (a.u.)
8 | ACATATGTACGGTCTTTTCTTGTGTAGTGCAATCTTATCTCGGAGTCACCTAGTGCAG | 9210 fluorescence intensity (a.u.)
9 | GACCGCTTTGACCTCCGTAACCACAGCCGCTCGATAAAATCGGAGTCACCTAGTGCAG | 9380 fluorescence intensity (a.u.)
10 | TATCTGACTTGCTTCGATTCATTGATCGTGTATAGAGTACCGGAGTCACCTAGTGCAG | 8050 fluorescence intensity (a.u.)
11 | CGATCCGATTCCGCGGCGCACTGTCAATCCCATTCCCATTCGGAGTCACCTAGTGCAG | 9460 fluorescence intensity (a.u.)
12 | ATCTCTTACTACTCGTTTCACTACTAGTATTTGTCAGTTTCGGAGTCACCTAGTGCAG | 9870 fluorescence intensity (a.u.)
13 | CGCCGCCTCCTCGTCCGCCTCCGCGCGCGCGTAACCCGGCCGGAGTCACCTAGTGCAG | 12400 fluorescence intensity (a.u.)
14 | GCCACTTCTACACACACAGCTAGCACCAACAACCCTATATCGGAGTCACCTAGTGCAG | 9480 fluorescence intensity (a.u.)
15 | TCGATTCCGGCGTGCGAATTCCTCCACCTCGCCGCCGCCGCGGAGTCACCTAGTGCAG | 8810 fluorescence intensity (a.u.)
16 | CTCTTGCTCTGCAGGTTGGGTTTCTTTCCTTCCTCAATTTCGGAGTCACCTAGTGCAG | 8290 fluorescence intensity (a.u.)
17 | GATCCATTCGATCGACGACCAACCACCTCTCCATAATATACGGAGTCACCTAGTGCAG | 10200 fluorescence intensity (a.u.)
18 | CGCATTGTTTTCTCCTCGATAGTATATCTCCTTCTTCTGTCGGAGTCACCTAGTGCAG | 9120 fluorescence intensity (a.u.)
19 | CTCGCATCACGGTGATTTTCTTACCTACGTTTCGAACCACCGGAGTCACCTAGTGCAG | 10400 fluorescence intensity (a.u.)
20 | CCCTCTCTCTCCGTCTCTCTCCCTCCCAAACCCTCGCGCGCGGAGTCACCTAGTGCAG | 8410 fluorescence intensity (a.u.)
21 | ACGAAGCCCAATAATAGCCCATGTGATCCTACCCTCGCGGCGGAGTCACCTAGTGCAG | 8100 fluorescence intensity (a.u.)

Row | Sequence | binding signal
22 | TCCATGGATATTTTGTCTCTTCTGCTTGATCACTAGGCCCCGGAGTCACCTAGTGCAG | 10100 fluorescence intensity (a.u.)
23 | AATTAGTCCATTAGTGTCATCAGCATGCTTAACAAGAACTCGGAGTCACCTAGTGCAG | 8420 fluorescence intensity (a.u.)
24 | ATAAGCCAAACAAGCCTTTTATCCGAATCTTTTGTTTGTACGGAGTCACCTAGTGCAG | 8070 fluorescence intensity (a.u.)
25 | CTCCTCTCTGACTCTTCTCCTTCACCTCCATCTTCTTCTTCGGAGTCACCTAGTGCAG | 11000 fluorescence intensity (a.u.)
26 | GGCGCCATTCCCCGAATGATTATTAGCTACTCCACAGCGTCGGAGTCACCTAGTGCAG | 8540 fluorescence intensity (a.u.)
27 | TAGTAAAGTGACCTACATTGTTTTTATCAGTTAAATTTATCGGAGTCACCTAGTGCAG | 8280 fluorescence intensity (a.u.)
28 | TTTATTCATGCTTGTTGTGCCTGAATGATTTGCATACTTCCGGAGTCACCTAGTGCAG | 9120 fluorescence intensity (a.u.)
29 | TATAAGTTATTTTGACTTTCTTTTTTGCTAGTTAAATTTTCGGAGTCACCTAGTGCAG | 8680 fluorescence intensity (a.u.)
30 | TGATCCAAGTTTTGGCCTTGTTTAGTTTTAAACTTTTTCTCGGAGTCACCTAGTGCAG | 8680 fluorescence intensity (a.u.)
31 | AATCCTGCATATTGACATTTTTATTCTGCATGTTGATCTCCGGAGTCACCTAGTGCAG | 9260 fluorescence intensity (a.u.)
32 | CCAATCGGTCTCCTTATCCCCATTTTTCTCTCTGTGCTGTCGGAGTCACCTAGTGCAG | 9460 fluorescence intensity (a.u.)
33 | GGGAGGGCTAACCTTGGATGGACTAGAGCCGCGGCGGCGGCGGAGTCACCTAGTGCAG | 10300 fluorescence intensity (a.u.)
34 | CGCGATATCCTCGTCCCGTACGTGTTGCCCATTTTGCCGCCGGAGTCACCTAGTGCAG | 10600 fluorescence intensity (a.u.)
35 | TGTTTGATCGACCTCTCTTCTTTGTTTTTCTCGTTCGATTCGGAGTCACCTAGTGCAG | 11100 fluorescence intensity (a.u.)
36 | ACATGTCCAGGGGTATATTTGTCCATTCACCACAAATTTACGGAGTCACCTAGTGCAG | 8800 fluorescence intensity (a.u.)
37 | ATCTGTAGTCCGTTGCTCTTCTCTCTCATATTTTATCTCGCGGAGTCACCTAGTGCAG | 11700 fluorescence intensity (a.u.)
38 | TTTTTAATAGATGACGCCGTTGACTTTTTCTCACATGTTTCGGAGTCACCTAGTGCAG | 34300 fluorescence intensity (a.u.)
39 | CCTTTTCGCAAACCAAGCAATACTTTCTTTAGGCGTCCTCCGGAGTCACCTAGTGCAG | 8060 fluorescence intensity (a.u.)
40 | TCCCGCGGGTCCCACTTCCTTTTCTCTTCTTTCTTCTAGTCGGAGTCACCTAGTGCAG | 8330 fluorescence intensity (a.u.)
41 | CAATTTTTTCTCATCAGGTATTAATATCTGGGTTTGGATTCGGAGTCACCTAGTGCAG | 8070 fluorescence intensity (a.u.)
42 | CCGCCCGCCTTCCACTGCCAGCTGAAGGTACTGGAGCTTTCGGAGTCACCTAGTGCAG | 9220 fluorescence intensity (a.u.)

Some of the entries above in another layout.
Row	Sequence	binding signal
30	TGATCCAAGTTTTGGCCTTGTTTAGTTTTAAACTTTTTCTCGGAGTCACCTAGTGCAG	8680 fluorescence intensity (a.u.)
38	TTTTTAATAGATGACGCCGTTGACTTTTTCTCACATGTTTCGGAGTCACCTAGTGCAG	34300 fluorescence intensity (a.u.)

Source: paper PMC7819943, “Rice protein-binding microarrays: a tool to detect cis-acting elements near promoter regions in rice”
